Source: doi:10.1101/2022.01.12.476021
These are yes or no findings as the source states them, for the method shown. For part of these data: Binding seen in cells or lysates may run through a third protein. Some results given as binding are weak or reduced against the parent protein; the word gives no strength.

Chains of the proteins cited; added tags and fusions are not shown.
UniProt P0AG99, whole entry: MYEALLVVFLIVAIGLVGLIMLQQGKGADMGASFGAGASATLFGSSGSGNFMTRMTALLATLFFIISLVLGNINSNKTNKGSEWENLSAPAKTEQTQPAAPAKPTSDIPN
UniProt P0AGA2, whole entry: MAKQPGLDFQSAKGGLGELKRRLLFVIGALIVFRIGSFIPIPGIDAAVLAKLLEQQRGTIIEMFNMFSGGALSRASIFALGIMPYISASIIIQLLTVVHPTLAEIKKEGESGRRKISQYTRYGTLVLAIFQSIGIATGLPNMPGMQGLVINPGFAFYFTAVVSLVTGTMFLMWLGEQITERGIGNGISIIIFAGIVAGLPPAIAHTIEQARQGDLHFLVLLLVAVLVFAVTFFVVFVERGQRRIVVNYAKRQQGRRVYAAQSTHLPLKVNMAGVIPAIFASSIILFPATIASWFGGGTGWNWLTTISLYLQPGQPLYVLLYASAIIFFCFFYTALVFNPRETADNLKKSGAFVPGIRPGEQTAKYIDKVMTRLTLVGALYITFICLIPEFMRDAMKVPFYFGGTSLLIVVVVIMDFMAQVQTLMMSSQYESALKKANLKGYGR

Columns and labels:
[1] = target: SecG (E. coli (endogenous in BL21 (DE3))) (UniProt P0AG99); assay: SEC
[2] = target: SecY (E. coli (endogenous in BL21 (DE3))) (UniProt P0AGA2); assay: SEC
[3] = target: SecG (E. coli (endogenous in BL21 (DE3))) (UniProt P0AG99); assay: co-IP

binding [1]: binds | binding [2]: binds | binding [3]: binds
B1: SecD (protein, UniProt P0AG90 1-615)
chain: MLNRYPLWKYVMLIVVIVIGLLYALPNLFGEDPAVQITGARGVAASEQTLIQVQKTLQEEKITAKSVALEEGAILARFDSTDTQLRAREALMGVMGDKYVVALNLAPATPRWLAAIHAEPMKLGLDLRGGVHFLMEVDMDTALGKLQEQNIDSLRSDLREKGIPYTTVRKENNYGLSITFRDAKARDEAIAYLSKRHPDLVISSQGSNQLRAVMSDARLSEAREYAVQQNINILRNRVNQLGVAEPVVQRQGADRIVVELPGIQDTARAKEILGATATLEFRLVNTNVDQAAAASGRVPGDSEVKQTREGQPVVLYKRVILTGDHITDSTSSQDEYNQPQVNISLDSAGGNIMSNFTKDNIGKPMATLFVEYKDSGKKDANGRAVLVKQEEVINIANIQSRLGNSFRITGINNPNEARQLSLLLRAGALIAPIQIVEERTIGPTLGMQNIEQGLEACLAGLLVSILFMIIFYKKFGLIATSALIANLILIVGIMSLLPGATLSMPGIAGIVLTLAVAVDANVLINERIKEELSNGRTVQQAIDEGYRGAFSSIFDANITTLIKVIILYAVGTGAIKGFAITTGIGVATSMFTAIVGTRAIVNLLYGGKRVKKLSI
